In patent EP2961395B1, “TARGETED NANOPARTICLES” (CALIFORNIA INSTITUTE OF TECHNOLOGY, priority 2013, dated 2014):

Test system: BT-474 xenograft tumors

Structure (SMILES)	NNTRD (number of non-treatment related death) (8 mg/kg (MAP-CPT on CPT basis) i.v. once per week for 3 weeks)	NNTRD (number of non-treatment related death) (80 mg/kg i.v. once per week for 3 weeks)
CC[C@@]1(O)C(=O)OCc2c1cc1n(c2=O)Cc2cc3ccccc3nc2-1 [CPT, Camptothecin]	0	
CCc1c2c(nc3ccc(OC(=O)N4CCC(N5CCCCC5)CC4)cc13)-c1cc3c(c(=O)n1C2)COC(=O)[C@]3(O)CC [Irinotecan]		0

Where two headings read alike, the source gives them in different places.
